This note sets out measurements from article PMC13226697, “Stress-induced OMA1-mediated cleavage of AIFM1 suppresses cell growth by controlling mitochondrial OXPHOS activity” (The EMBO Journal, 2026).

Protein sequences, listed by entry. Tags and fused reporters are not part of them. Lines headed by an entry give the natural chain unless they say otherwise; changes in a name come on top. Chains listed by the source or under a name are the forms on record and can include a tag or linker. Residues count along the entry.
AIFM1^TCS/TEV, soluble product of AIFM1^TCS cleaved by IMS-TEV protease (Q9Z0X1, form named): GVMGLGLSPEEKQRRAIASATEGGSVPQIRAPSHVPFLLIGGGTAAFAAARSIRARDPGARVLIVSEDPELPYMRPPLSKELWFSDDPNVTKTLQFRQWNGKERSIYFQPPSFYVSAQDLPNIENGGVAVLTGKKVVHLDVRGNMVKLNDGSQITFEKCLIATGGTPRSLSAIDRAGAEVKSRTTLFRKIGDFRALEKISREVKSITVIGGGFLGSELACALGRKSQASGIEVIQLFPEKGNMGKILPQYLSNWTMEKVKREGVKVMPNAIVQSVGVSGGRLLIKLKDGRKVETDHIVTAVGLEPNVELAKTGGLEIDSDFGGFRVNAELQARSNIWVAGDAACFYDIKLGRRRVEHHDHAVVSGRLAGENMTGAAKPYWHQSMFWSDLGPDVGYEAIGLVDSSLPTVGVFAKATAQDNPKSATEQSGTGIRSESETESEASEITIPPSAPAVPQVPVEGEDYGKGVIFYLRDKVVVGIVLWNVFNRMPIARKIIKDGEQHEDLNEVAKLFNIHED
UniProt Q3ZCQ8, residues 45-353: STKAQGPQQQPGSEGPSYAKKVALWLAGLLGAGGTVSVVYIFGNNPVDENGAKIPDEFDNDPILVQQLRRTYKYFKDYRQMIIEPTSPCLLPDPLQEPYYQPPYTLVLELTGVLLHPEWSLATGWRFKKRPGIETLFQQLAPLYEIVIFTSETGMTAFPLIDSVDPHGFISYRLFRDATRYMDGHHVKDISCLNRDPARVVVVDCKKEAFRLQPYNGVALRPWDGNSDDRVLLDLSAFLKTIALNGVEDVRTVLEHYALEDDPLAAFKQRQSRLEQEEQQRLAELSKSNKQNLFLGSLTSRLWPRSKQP
UniProt Q99595: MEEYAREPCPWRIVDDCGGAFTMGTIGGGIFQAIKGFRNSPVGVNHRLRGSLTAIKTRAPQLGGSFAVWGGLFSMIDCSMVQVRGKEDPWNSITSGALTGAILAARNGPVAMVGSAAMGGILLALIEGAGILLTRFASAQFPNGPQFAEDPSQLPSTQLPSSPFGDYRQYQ
UniProt O60830: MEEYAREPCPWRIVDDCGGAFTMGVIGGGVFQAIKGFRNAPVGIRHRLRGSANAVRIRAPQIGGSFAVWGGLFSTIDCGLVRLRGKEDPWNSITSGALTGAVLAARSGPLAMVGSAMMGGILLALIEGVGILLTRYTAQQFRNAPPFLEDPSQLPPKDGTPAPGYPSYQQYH

No constants are given. Whether binding was seen depends on the method and setting. In cells and extracts the contact can be indirect. Some entries that bind do so weakly or less than the wild type.

In experiment [1] the target is AIFM1^TCS/TEV, soluble product of AIFM1^TCS cleaved by IMS-TEV protease (murine) (UniProt Q9Z0X1). Briefly: co-IP; mitochondrial extracts of AIFM1^TCS and AIFM1^TCS/TEV cells immunoprecipitated with anti-Myc, immunoblot. A general note: A western blot detects proteins with antibodies after separation by electrophoresis.
The target of experiment [2] is T1, TIM23, endogenous human (human (endogenous in Flp-In T-REx-293 and HeLa)) (UniProt O14925).
T1 sequence: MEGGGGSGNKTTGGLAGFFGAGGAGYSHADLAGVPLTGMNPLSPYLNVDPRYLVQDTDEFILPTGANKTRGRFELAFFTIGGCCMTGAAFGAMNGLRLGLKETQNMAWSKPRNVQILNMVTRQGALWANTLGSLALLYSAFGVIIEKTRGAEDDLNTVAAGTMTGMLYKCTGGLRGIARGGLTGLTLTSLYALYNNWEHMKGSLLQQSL
Description: co-IP; HeLa lysates, with or without CHX (10 μg/mL), immunoprecipitated with anti-TIM23 monoclonal antibody or control IgG (anti-GFP), western blot.

In the case of “TIM50, endogenous human (from UniProt Q3ZCQ8 45-353)”, the binding entry in experiment [1] is “binds”. Consider “TIM17A, endogenous human (from UniProt Q99595 1-171)”, for which, in experiment [2], the binding result is “binds”. On the same count and under the same terms, in the case of “TIM17B, endogenous human (from UniProt O60830 1-172)” it was “binds”.

B1: TIM23, endogenous human (protein, UniProt O14925 1-209)
chain: T1 sequence
Take B1: in experiment [1], the binding entry is on record as “binds”.
